These are yes or no findings as the source states them, for the method shown. In cells and extracts the contact can be indirect. Some binding calls cover weakened binding; strength is not graded here.
Biological target: PAD4, endogenous in DMSO-differentiated HL60 cells (human (endogenous in HL60)) (UniProt Q9UM07)
Assay: co-IP; lysate of DMSO-differentiated HL60 cells (Tris-Cl 25 mM pH 7.4, NaCl 50 mM, CaCl2 2 mM, 1% NP40) precipitated with anti-PAD4 (rabbit) or generic rabbit IgG, protein A/G beads; blot with anti-PAD4 and anti-thioredoxin

The chains behind the UniProt entries cited, without tags or fusion partners.
UniProt Q9UM07: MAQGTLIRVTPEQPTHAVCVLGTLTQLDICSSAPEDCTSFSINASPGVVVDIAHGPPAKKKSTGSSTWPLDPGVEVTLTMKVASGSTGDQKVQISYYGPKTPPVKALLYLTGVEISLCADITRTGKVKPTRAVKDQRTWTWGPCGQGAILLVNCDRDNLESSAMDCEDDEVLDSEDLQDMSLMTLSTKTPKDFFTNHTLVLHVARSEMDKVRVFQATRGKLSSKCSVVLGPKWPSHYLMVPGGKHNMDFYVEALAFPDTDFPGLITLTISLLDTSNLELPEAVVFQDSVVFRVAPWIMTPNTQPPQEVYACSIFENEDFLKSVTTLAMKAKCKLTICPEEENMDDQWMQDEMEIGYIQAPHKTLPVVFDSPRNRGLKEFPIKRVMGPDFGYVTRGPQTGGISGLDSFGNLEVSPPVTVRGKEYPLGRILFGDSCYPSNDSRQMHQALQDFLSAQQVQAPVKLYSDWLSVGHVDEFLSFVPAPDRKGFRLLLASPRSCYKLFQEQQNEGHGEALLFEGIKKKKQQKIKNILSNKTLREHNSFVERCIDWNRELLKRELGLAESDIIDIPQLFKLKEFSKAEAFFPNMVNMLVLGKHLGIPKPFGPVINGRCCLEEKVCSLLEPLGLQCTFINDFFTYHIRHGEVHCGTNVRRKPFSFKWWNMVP

binding: binds
B1: thioredoxin (hTRX), endogenous in DMSO-differentiated HL60 cells (enzyme, UniProt P10599 1-105)
chain: MVKQIESKTAFQEALDAAGDKLVVVDFSATWCGPCKMIKPFFHSLSEKYSNVIFLEVDVDDCQDVASECEVKCMPTFQFFKKGQKVGEFSGANKEKLEATINELV
